Results taken from patent US6887869B2, “Mikanolide derivatives, their preparation and therapeutic uses” (Societe de Conseils de Recherches et d'Applications …, priority 2001, dated 2005).
Some entries share one result that the patent states for a list of compounds.

How the values were obtained:
[1] = system: Mia-PaCa2 (human pancreatic cancer cells); experiment: Measurement of cell proliferation (WST1), Mia-PaCa2; assay type: cell-based; details: Mia-Paca2, 96 hours treatment; read-out: IC50 inhibitory concentration, proliferation of Mia-Paca2 cell lines
Experimental: (§1) DU-145 (human prostate cancer cells), HT29 (cancer of the colon) and Mia-PaCa2 (human pancreatic cancer cells) were acquired from the American Tissue Culture Collection (Rockville, Md., USA).
(§2) Measurement of Cell Proliferation
(§3) The cells placed in 80 μl of Dulbecco's modified Eagle medium (Gibco-BRL, Cergy-Pontoise, France) completed with 10% of foetal calf serum inactivated by heating (Gibco-BRL, Cergy-Pontoise, France), 50000 units/l of penicillin and 50 mg/l streptomycin (Gibco-BRL, Cergy-Pontoise, France), and 2 mM of glutamine (Gibco-BRL, Cergy-Pontoise, France) were seeded on a 96-well plate on day 0. The cells were treated on day 1 for 96 hours with increasing concentrations of each of the compounds to be tested. At the end of the of this period, quantification of the cell proliferation is evaluated by a calorimetric test based on the cleavage of the tetrazolium salt WST1 by mitochondrial dehydrogenases in viable cells leading to the formation of formazan (Boehringer Mannheim, Meylan, France). These tests are carried out in duplicate with 8 determinations per concentration tested. The products are solubilised in dimethylsulphoxide (DMSO) at 10^−2 M and finally used in culture with 0.5% DMSO.

[2] = system: DU-145 (human prostate cancer cells); experiment: Measurement of cell proliferation (WST1), DU-145; assay type: cell-based; details: DU-145, 96 hours treatment; read-out: IC50 inhibitory concentration, proliferation of DU-145 cell lines
Experimental: as §1, §2, §3

Substance: 12-benzyl(methyl)amino-3-benzyl(methyl)aminomethyl-11-hydroxy-8-methyl-5,9,15-trioxatetracyclo[11.2.1.0^2,6.0^8,10]hexadec-13(16)-ene-4,14-dione [Example 3]
- IC50 [1]: ≤ 30 µM
- IC50 [2]: ≤ 30 µM

Substance: 12-(dimethylamino)-3,8-dimethyl-4,14-dioxo-5,9,15-trioxatetracyclo[11.2.1.0^2,6.0^8,10]hexadec-13(16)-en-11-yl benzoate [Example 22]
- IC50 [1]: ≤ 30 µM
- IC50 [2]: ≤ 30 µM

Substance: 3,8-dimethyl-12-(4-methylpiperidino)-4,14-dioxo-5,9,15-trioxatetracyclo[11.2.1.0^2,6.0^8,10]hexadec-13(16)-en-11-yl acetate [Example 17]
- IC50 [1]: ≤ 30 µM
